Not every detail of the peptide structures is certain; ends, links or a residue may be inferred. Where no end group is shown, it is not given here.
Legend:
C8161 cells = assay: Internalization mechanism: uptake of FITC-labelled peptides with heparin, low temperature and endocytosis inhibitors (flow cytometry); assay type: cell-based; details: for cellular uptake at 4° C. compared to 37° C. / cellular uptake in the presence of heparin sulfate: 5 μM peptide 1 h; for cellular uptake after chlorpromazine (CPZ) pre-treatment: CPZ 50 μM, clathrin-mediated endocytosis inhibitor; for cellular uptake after EIPA pre-treatment: EIPA 50 μM, inhibitor of micropinocytosis; for cellular uptake after methyl-β-cyclodextrine (MBCD) pre-treatment: MBCD 1 mM, lipid raft-mediated endocytosis inhibitor; for cellular uptake in the presence of heparin sulfate: heparin sulfate 20 μg/ml pre-incubation 30 min
[1] = system: malignant (CD3+CD4+TCR-Vβ+) CD4+ T-cells (Sézary cells); assay: Ex vivo Sézary patients' PBMC cell death (7-AAD flow cytometry); assay type: cell-based, human; details: increasing concentrations, 4 h, 37° C., three patients
SK-Mel-28 = assay: Cell viability (MTT) after RT33 / RT33DR; assay type: cell-based; details: increasing concentrations, 20 h, dose-dependent
U2OS = assay: Cell viability (MTT) after RT33 / RT33DR; assay type: cell-based; details: increasing concentrations, 20 h, dose-dependent
HUT78 = assay: Cell viability (MTT) after RT33 / RT33DR; assay type: cell-based; details: for cell death in presence of necrostatin-1: 50 μM Necrostatin-1, 20 h; for cell viability: increasing concentrations, 20 h, dose-dependent
Protocol: FIG. 6 RT33 and RT33DR induces cancer cells, but not normal cells, death. (A) Amino-acid sequence of RT33 and RT3DR. hAP10 and hAP10DR sequences are in bold. (B) The indicated cells were exposed to increasing concentrations of RT33 or RT3DR for 20 h. Viability was then assessed by an MTT assay. Data are means±s.e.m. (n=3). (C) HUT78 cells were exposed to increasing concentrations of RT33 or RT3DR for 20 h in the presence and absence of 50 μM zVAD-fmk or 50 μM Necrostatin-1 (Nec-1). Viability was then assessed by an MTT assay. Data are means±s.e.m. (n=3). (D) HUT78 cells were exposed to 20 μM of RT33 or RT33DR for 3 h. Necrotic cell death was monitored by lactate dehydrogenase (LDH) as in FIG. 4 (B). Data are means±s.e.m. (n=3). (E) Ultrastructural analysis of HUT78 cells treated with 15 μM of hAP10 or hAP10DR for 1 h. (F) Structural prediction of RT33 and RT33DR. The segments corresponding to the hAP10 and hAP10DR moieties are in light grey. (G) Cancerous C8161 cells or non-cancerous MRC-5 cells were exposed to FITC-labelled RT33 or RT33DR for 1 h. Cels were then examined by fluorescence microscopy.
Cells survival was assessed with the CellTiter 96® Aqueous One Solution Cell Proliferation Assay kit (Promega, Madison, Wis.). Necrotic plasma membrane permeabilization was assessed by lactate dehydrogenase (LDH) leakage in the culture medium with the CytoTox 96® Non-Radioactive Cytotoxicity Assay kit (Promega, Madison, Wis.).

HUT78 cells [2] = assay: LDH release from cells treated with RT33 / RT33DR; assay type: cell-based; details: 20 μM, 3 h
HUT78 cells [3] = assay: Transmission electron microscopy (ultrastructural analysis); assay type: cell-based; details: 15 μM, 1 h
[4] = system: HUT78 Sézary cell line xenograft tumors; assay: Xenograft tumor model of Sézary syndrome; assay type: in vivo; details: for tumor necrosis by H&E staining: 5 mg/kg daily i.p.; for tumor weight: systemic injection
Protocol: FIG. 8 RT33 and RT33DR inhibit tumor growth in vivo in a mouse model for the Sézary syndrome. (A) Mice were engrafted subcutaneously with HUT78 Sézary cell line. Animals with preexisting tumors were treated daily with i.p. injections of RT33 or RT33DRM in normal saline (5 mg/kg) or normal saline as control. Tumors were calipered throughout the study and data were plotted as means±s.e.m. (n=7 mice per group). p<0.005 relative to control. Subsequently, tumors were excised, stripped of non-tumor tissue and tumors volumes were calculated. (B) Representative pictures of H&E staining of tumors treated with RT33, RT33DRM, or normal saline. The scale bar represents 500 μm.
Animal experiments were approved by The University Board Ethics Committee for Experimental Animal Studies (#2303.01). Xenograft tumors were obtained by subcutaneous injection of 10^6 HUT78 cells in the right flank of 8-week-old female NOD-SCID-gamma (NSG) mice, bred and housed under pathogen-free conditions at our animal facility (IUH, Saint Louis Hospital, Paris, France). Treatment started after randomization when tumors were visible and consisted of daily intraperitoneal (i.p.) injection of normal saline or RT33 or RT33DR in normal saline (n=5 per group). Tumor volume was measured every other day and calculated as: long axis X short axis^2 ×0.5. Animals were euthanized after 21 days of treatment or when tumor size reached the ethical end point and visceral organs were excised for a gross pathological examination. Tumors were fixed in 4% neutral buffered formalin and embedded in paraffin. Sections (4 μm) were stained with hematoxylin-eosin (H&E) and subjected to microscopic analysis.

RSRSRDRRRK [hAP10, RSRSRDRRRK]
cellular uptake at 4° C. compared to 37° C. (C8161 cells): substantially decrease | cellular uptake after chlorpromazine (CPZ) pre-treatment (C8161 cells): did not significantly reduced | cellular uptake after EIPA pre-treatment (C8161 cells): drastic decrease | cellular uptake after methyl-β-cyclodextrine (MBCD) pre-treatment (C8161 cells): did not significantly reduced | cellular uptake in the presence of heparin sulfate (C8161 cells): greatly decreased | cell death (7-AAD+) in malignant CD4+ T-cells [1]: did not induce cell death

RSRSRRRRRK [hAP10DR, RSRSRRRRRK]
cellular uptake at 4° C. compared to 37° C. (C8161 cells): substantially decrease | cellular uptake after chlorpromazine (CPZ) pre-treatment (C8161 cells): did not significantly reduced | cellular uptake after EIPA pre-treatment (C8161 cells): drastic decrease | cellular uptake after methyl-β-cyclodextrine (MBCD) pre-treatment (C8161 cells): did not significantly reduced | cellular uptake in the presence of heparin sulfate (C8161 cells): greatly decreased | cell death (7-AAD+) in malignant CD4+ T-cells [1]: did not induce cell death

RSRSRRRRRKLQYFARGLQVYIRQLRLALQGKT [RT33DR]
cell viability (SK-Mel-28): inhibited cell viability | cell viability (U2OS): inhibited cell viability | cell death in presence of necrostatin-1 (HUT78): cell death was not prevented | cell viability (HUT78): inhibited cell viability | anticancer properties compared with RT33 (HUT78; stated for the cancer cells overall (SK-Mel-28, U2OS, HUT78)): substantially higher anticancer proprieties than RT33 | LDH release into supernatant (HUT78 cells [2]): massive release of LDH | plasma membrane ultrastructure (HUT78 cells [3]): ruptured and disintegrated plasma membranes | cell death (7-AAD+) in malignant CD4+ T-cells [1]: dose-dependent cell death activity | tumor necrosis by H&E staining [4]: sharp increase of necrotic areas | tumor weight [4]: reduced tumor weight

RSRSRDRRRKLQYFARGLQVYIRQLRLALQGKT [RT33]
cell viability (SK-Mel-28): inhibited cell viability | cell viability (U2OS): inhibited cell viability | cell death in presence of necrostatin-1 (HUT78): cell death was not prevented | cell viability (HUT78): inhibited cell viability | LDH release into supernatant (HUT78 cells [2]): massive release of LDH | plasma membrane ultrastructure (HUT78 cells [3]): ruptured and disintegrated plasma membranes | cell death (7-AAD+) in malignant CD4+ T-cells [1]: dose-dependent cell death activity | tumor necrosis by H&E staining [4]: sharp increase of necrotic areas | tumor weight [4]: reduced tumor weight

From patent US20220296674A1, “CELL PENETRATING PEPTIDES FOR INTRACELLULAR DELIVERY OF MOLECULES” (INSERM (INSTITUT NATIONAL DE LA SANTÉ ET DE LA RECHERCHE …, priority 2019, published 2022)
